PubChem BioAssay AID504784, Drosophila RNAi Screening Center – 2011
The deposit covers about 17,000 reagents; below is a random part of those that have a named target and a result. 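Each column is one replicate's B-score; the combined score over replicates was not deposited, so single values may mislead.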 Reagents against one gene are numbered here. Further read-outs or replicates are left out here.

- Screen: 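Fly genes whose silencing alters how much lipid cells keep in droplets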 (primary screen)
- Cells: Drosophila Kc167 embryonic cells
- Reagents: long dsRNA against Drosophila genes, about 250 ng dsRNA per well
- Timing: 4 days
- Challenge: cells fed 400 µM oleic acid bound to BSA
- Read-out: 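Cells imaged and segmented; ratio of lipid droplet area to nuclear area, log-transformed, then normalised as a B-score over the screen; higher means more stored lipid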
- Reading the numbers: droplet/nuclear area B-score: higher = more stored lipid (overstorage)

With knock-down of Or94b (GeneID 42712), the record shows droplet/nuclear area B-score, replicate 1 = -0.517.
Knock-down of CG13344 (GeneID 36541) gave: droplet/nuclear area B-score, replicate 1 = -0.0253.
With knock-down of wfs1 (GeneID 42679), the screen gave droplet/nuclear area B-score, replicate 1 = -0.745.
Knock-down of CG1572 (GeneID 32098) gave: droplet/nuclear area B-score, replicate 1 = -0.8.
After knock-down of CG1227 (GeneID 40872), the record shows droplet/nuclear area B-score, replicate 1 = -0.000816.
For Cyp6g1 (GeneID 36316), the entry reads droplet/nuclear area B-score, replicate 1 = -0.627.
Depletion of Hsf (GeneID 37068) came out at: droplet/nuclear area B-score, replicate 1 = 0.0053.
Knock-down of CG10839 (GeneID 34944) came out at: droplet/nuclear area B-score, replicate 1 = 0.127.
Silencing of CG31673 (GeneID 35348) gave: droplet/nuclear area B-score, replicate 1 = -0.0722.
After knock-down of CG31637 (GeneID 33914) #1, the record shows droplet/nuclear area B-score, replicate 1 = 1.08.
Against CG31637 (GeneID 33914) #2, the values are droplet/nuclear area B-score, replicate 1 = -0.0702.
With knock-down of sog (GeneID 32498) the results were droplet/nuclear area B-score, replicate 1 = 0.259.
Knock-down of CG17109 (GeneID 42730) resulted in: droplet/nuclear area B-score, replicate 1 = -0.00882.
Depletion of Cpr60D (GeneID 246492) gave: droplet/nuclear area B-score, replicate 1 = -1.6.
Silencing of Cpr64Ab (GeneID 38509) gave: droplet/nuclear area B-score, replicate 1 = -0.681.
For TM9SF4 (GeneID 34778) #1, the entry reads droplet/nuclear area B-score, replicate 1 = 0.577.
After knock-down of TM9SF4 (GeneID 34778) #2 the results were droplet/nuclear area B-score, replicate 1 = -0.0763.

5 entries already listed, ordered by “droplet/nuclear area B-score, replicate 1”, lowest first:
Cpr60D (GeneID 246492): droplet/nuclear area B-score, replicate 1 = -1.6
Cpr64Ab (GeneID 38509): droplet/nuclear area B-score, replicate 1 = -0.681
CG31637 (GeneID 33914) #2: droplet/nuclear area B-score, replicate 1 = -0.0702
CG17109 (GeneID 42730): droplet/nuclear area B-score, replicate 1 = -0.00882
sog (GeneID 32498): droplet/nuclear area B-score, replicate 1 = 0.259

The list goes on.
Against cid (GeneID 36495) #1, the values are droplet/nuclear area B-score, replicate 1 = 0.678.
With knock-down of cid (GeneID 36495) #2 the results were droplet/nuclear area B-score, replicate 1 = 1.25.
After knock-down of Ir85a (GeneID 41052) the results were droplet/nuclear area B-score, replicate 1 = -0.799.
Ugt303B3 (GeneID 42774) scored droplet/nuclear area B-score, replicate 1 = 2.54.
Drsl4 (GeneID 317954) scored droplet/nuclear area B-score, replicate 1 = 0.186.
With knock-down of Rrp5 (GeneID 42899) the results were droplet/nuclear area B-score, replicate 1 = 0.0537.
After knock-down of CG11037 (GeneID 40317), the record shows droplet/nuclear area B-score, replicate 1 = 0.458.
Elys (GeneID 32971) gave droplet/nuclear area B-score, replicate 1 = 0.436.
Silencing of hebe (GeneID 36011) #1 gave: droplet/nuclear area B-score, replicate 1 = -0.284.
hebe (GeneID 36011) #2 showed droplet/nuclear area B-score, replicate 1 = 0.577.
For hebe (GeneID 36011) #3, the entry reads droplet/nuclear area B-score, replicate 1 = -1.22.
Against swm (GeneID 35235) #1 the deposit lists droplet/nuclear area B-score, replicate 1 = 0.0174.
For swm (GeneID 35235) #2, the values are droplet/nuclear area B-score, replicate 1 = -0.326.
For CG11131 (GeneID 40511) #1, the values are droplet/nuclear area B-score, replicate 1 = 0.0174.
Silencing of CG11131 (GeneID 40511) #2 gave: droplet/nuclear area B-score, replicate 1 = -1.14.
With knock-down of Muc12Ea (GeneID 32384), the screen gave droplet/nuclear area B-score, replicate 1 = -1.5.
Against CG14785 (GeneID 31094) the deposit lists droplet/nuclear area B-score, replicate 1 = -0.426.
Depletion of Traf6 (GeneID 31746) came out at: droplet/nuclear area B-score, replicate 1 = 0.606.
Depletion of CG15890 (GeneID 32401) resulted in: droplet/nuclear area B-score, replicate 1 = -0.258.
Against Delta (GeneID 42313), the entry reads droplet/nuclear area B-score, replicate 1 = 0.132.
Against CG10031 (GeneID 33594), the values are droplet/nuclear area B-score, replicate 1 = -1.38.
CG6280 (GeneID 36522) showed droplet/nuclear area B-score, replicate 1 = 0.723.
For Cyp313b1 (GeneID 41019), the values are droplet/nuclear area B-score, replicate 1 = 0.548.
